Measurements reported in PubChem BioAssay AID1259254 (NCATS, 2017)
Test: 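Gene knock-downs that lead to re-replication, shown by excess G2 DNA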 (primary screen). System: human HCT116 colorectal cancer cells. Knock-down reagent: single siRNA against human genes. Timing: 3 days. Read-out: 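Imaged Hoechst DNA stain sorts each cell into a cycle phase by DNA amount; per plate, G2 fraction set to 0% for non-targeting and 100% for GMNN siRNA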. Direction: G2 robust z-score: higher = more G2 cells, more excess DNA replication. Call rule: 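An siRNA counts as active if its G2 robust z-score lies at least 5 MADs above the screen median; here such calls match roughly 38% of GMNN control or more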.
In all, the deposit lists about 59,000 reagents; this is a part drawn at random. Of all reagents, about 1,550 (2.6%) were called active. 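G2 share is only a proxy for re-replication; each gene was hit by three separate siRNAs, and active genes were retested.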 Reagents against one gene are numbered here. Not all columns of the deposit are shown. No sequences are given here. Not stated in the record: the amount of reagent.

Which result is listed for SIRPB1 (signal regulatory protein beta 1) #1?
G2 robust z-score: -0.665; call: inactive

With SIRPB1 (signal regulatory protein beta 1) #2, what was measured?
G2 robust z-score: -0.43; call: inactive

With SIRPB1 (signal regulatory protein beta 1) #3, what does the deposit list?
G2 robust z-score: 3.08; call: inactive

For RDH5 (retinol dehydrogenase 5) #1, how do the results read?
G2 robust z-score: 0.658; call: inactive

What is on record for RDH5 (retinol dehydrogenase 5) #2?
G2 robust z-score: 0.119; call: inactive

Which result is listed for RDH5 (retinol dehydrogenase 5) #3?
G2 robust z-score: -0.492; call: inactive

What is on record for DNAH9 (dynein axonemal heavy chain 9) #1?
G2 robust z-score: 1.14; call: inactive

What is on record for DNAH9 (dynein axonemal heavy chain 9) #2?
G2 robust z-score: -0.985; call: inactive

What did the screen give for DNAH9 (dynein axonemal heavy chain 9) #3?
G2 robust z-score: 2.66; call: inactive

With SMIM34 (small integral membrane protein 34) #1, what does the deposit list?
G2 robust z-score: 6.83; call: active

How did the screen score SMIM34 (small integral membrane protein 34) #2?
G2 robust z-score: 0.175; call: inactive

With SMIM34 (small integral membrane protein 34) #3, what was measured?
G2 robust z-score: -0.474; call: inactive

Which result is listed for ARAP2 (ArfGAP with RhoGAP domain, ankyrin repeat and PH domain 2) #1?
G2 robust z-score: 0.334; call: inactive

For ARAP2 (ArfGAP with RhoGAP domain, ankyrin repeat and PH domain 2) #2, what does the deposit list?
G2 robust z-score: -0.708; call: inactive

With ARAP2 (ArfGAP with RhoGAP domain, ankyrin repeat and PH domain 2) #3, what does the deposit list?
G2 robust z-score: -0.496; call: inactive

With MEF2A (myocyte enhancer factor 2A) #1, what does the deposit list?
G2 robust z-score: -0.413; call: inactive

With MEF2A (myocyte enhancer factor 2A) #2, what was measured?
G2 robust z-score: -0.46; call: inactive

What is on record for MEF2A (myocyte enhancer factor 2A) #3?
G2 robust z-score: 1.46; call: inactive

With MIF4GD (MIF4G domain containing) #1, how do the results read?
G2 robust z-score: 0.52; call: inactive

With MIF4GD (MIF4G domain containing) #2, what does the deposit list?
G2 robust z-score: -0.762; call: inactive

How did the screen score MIF4GD (MIF4G domain containing) #3?
G2 robust z-score: 5.45; call: active

What did the screen give for NUDT14 (nudix hydrolase 14) #1?
G2 robust z-score: -0.591; call: inactive

How did the screen score NUDT14 (nudix hydrolase 14) #2?
G2 robust z-score: 0.211; call: inactive

How did the screen score NUDT14 (nudix hydrolase 14) #3?
G2 robust z-score: 1.23; call: inactive

Look-ups from above.
Under “G2 robust z-score”, ARAP2 (ArfGAP with RhoGAP domain, ankyrin repeat and PH domain 2) #1 reads 0.334
Value for NUDT14 (nudix hydrolase 14) #2 in “G2 robust z-score”: 0.211
Under “call”, ARAP2 (ArfGAP with RhoGAP domain, ankyrin repeat and PH domain 2) #3 shows inactive
